Measured values published in US9448243B2, “Weak affinity chromatography” (priority 2013, dated 2016).

Assay: Chromatography of steroids on blank diol-silica column without binding ligand (column A)
Details: 20° C.
[1] = 5 mM Am-Ac buffer pH 6.9, no ligand

Compound	k′ (capacity factor), Column A [1]	k′ (capacity factor), Column A (PBS buffer pH 7.4, no ligand)
C[C@]12C=CC(=O)C=C1CC[C@@H]1[C@@H]2[C@@H](O)C[C@@]2(C)[C@H]1CC[C@]2(O)C(=O)CO [Prednisolone, prednisolone]	0.15	0.22
C[C@]12CCC(=O)C=C1CC[C@@H]1[C@@H]2C(=O)C[C@@]2(C)[C@H]1CC[C@]2(O)C(=O)CO [Cortisone, cortisone]	0.15	0.24
C[C@]12CCC(=O)C=C1CC[C@@H]1[C@@H]2[C@@H](O)C[C@@]2(C)[C@H]1CC[C@]2(O)C(=O)CO [Hydrocortisone, hydrocortisone]	0.15	0.21
